Data taken from the supplement of paper PMC12823440, “Inhibitors supercharge kinase turnover through native proteolytic circuits” (Nature, 2025).
Some of the results follow. Hit calls seldom repeat between salt and free forms of one compound.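 In K562 cells expressing nanoluciferase-fused kinases, luminescence was recorded at 4 h intervals between 2 and 18 h, normalized as percent of control with DMSO at 100% and a positive control at 0%. A significant (2 sigma) signal drop marks a time point as decreased. The authors' rule for a hit is not shown and takes in more than the number of time points.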

Amino acid sequences for entries named in this document (tags omitted). A change or cut given only in a name is not applied to a line headed by its entry.
UniProt P07949, whole entry, looked up: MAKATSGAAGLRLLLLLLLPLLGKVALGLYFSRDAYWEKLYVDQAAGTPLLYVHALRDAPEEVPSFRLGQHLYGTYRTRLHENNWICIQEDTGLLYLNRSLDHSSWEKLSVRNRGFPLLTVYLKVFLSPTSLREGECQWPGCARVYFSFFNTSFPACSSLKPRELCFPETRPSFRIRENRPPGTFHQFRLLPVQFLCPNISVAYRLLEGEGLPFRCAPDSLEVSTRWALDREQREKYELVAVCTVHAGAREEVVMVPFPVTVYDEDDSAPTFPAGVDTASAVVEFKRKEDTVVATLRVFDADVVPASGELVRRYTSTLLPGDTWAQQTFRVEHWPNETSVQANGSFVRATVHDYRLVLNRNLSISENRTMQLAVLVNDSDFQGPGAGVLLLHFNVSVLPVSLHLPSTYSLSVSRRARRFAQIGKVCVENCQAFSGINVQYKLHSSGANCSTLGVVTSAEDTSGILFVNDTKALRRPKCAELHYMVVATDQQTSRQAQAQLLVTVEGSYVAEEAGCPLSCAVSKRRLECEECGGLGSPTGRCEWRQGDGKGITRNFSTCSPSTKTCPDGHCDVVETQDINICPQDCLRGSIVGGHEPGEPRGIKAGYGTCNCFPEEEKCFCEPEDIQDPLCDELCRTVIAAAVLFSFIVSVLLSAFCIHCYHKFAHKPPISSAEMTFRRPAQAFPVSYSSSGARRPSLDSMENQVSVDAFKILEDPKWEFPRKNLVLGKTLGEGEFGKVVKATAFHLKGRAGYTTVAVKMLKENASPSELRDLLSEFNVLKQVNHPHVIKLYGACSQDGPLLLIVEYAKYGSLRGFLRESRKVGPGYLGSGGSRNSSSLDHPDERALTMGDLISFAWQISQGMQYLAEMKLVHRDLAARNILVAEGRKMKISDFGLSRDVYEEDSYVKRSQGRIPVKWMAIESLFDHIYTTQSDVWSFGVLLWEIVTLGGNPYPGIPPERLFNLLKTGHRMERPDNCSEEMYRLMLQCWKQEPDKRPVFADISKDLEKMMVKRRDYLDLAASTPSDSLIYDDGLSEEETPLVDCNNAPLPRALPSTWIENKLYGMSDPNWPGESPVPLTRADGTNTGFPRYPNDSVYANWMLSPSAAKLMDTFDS
UniProt P07949, whole entry M918T, looked up: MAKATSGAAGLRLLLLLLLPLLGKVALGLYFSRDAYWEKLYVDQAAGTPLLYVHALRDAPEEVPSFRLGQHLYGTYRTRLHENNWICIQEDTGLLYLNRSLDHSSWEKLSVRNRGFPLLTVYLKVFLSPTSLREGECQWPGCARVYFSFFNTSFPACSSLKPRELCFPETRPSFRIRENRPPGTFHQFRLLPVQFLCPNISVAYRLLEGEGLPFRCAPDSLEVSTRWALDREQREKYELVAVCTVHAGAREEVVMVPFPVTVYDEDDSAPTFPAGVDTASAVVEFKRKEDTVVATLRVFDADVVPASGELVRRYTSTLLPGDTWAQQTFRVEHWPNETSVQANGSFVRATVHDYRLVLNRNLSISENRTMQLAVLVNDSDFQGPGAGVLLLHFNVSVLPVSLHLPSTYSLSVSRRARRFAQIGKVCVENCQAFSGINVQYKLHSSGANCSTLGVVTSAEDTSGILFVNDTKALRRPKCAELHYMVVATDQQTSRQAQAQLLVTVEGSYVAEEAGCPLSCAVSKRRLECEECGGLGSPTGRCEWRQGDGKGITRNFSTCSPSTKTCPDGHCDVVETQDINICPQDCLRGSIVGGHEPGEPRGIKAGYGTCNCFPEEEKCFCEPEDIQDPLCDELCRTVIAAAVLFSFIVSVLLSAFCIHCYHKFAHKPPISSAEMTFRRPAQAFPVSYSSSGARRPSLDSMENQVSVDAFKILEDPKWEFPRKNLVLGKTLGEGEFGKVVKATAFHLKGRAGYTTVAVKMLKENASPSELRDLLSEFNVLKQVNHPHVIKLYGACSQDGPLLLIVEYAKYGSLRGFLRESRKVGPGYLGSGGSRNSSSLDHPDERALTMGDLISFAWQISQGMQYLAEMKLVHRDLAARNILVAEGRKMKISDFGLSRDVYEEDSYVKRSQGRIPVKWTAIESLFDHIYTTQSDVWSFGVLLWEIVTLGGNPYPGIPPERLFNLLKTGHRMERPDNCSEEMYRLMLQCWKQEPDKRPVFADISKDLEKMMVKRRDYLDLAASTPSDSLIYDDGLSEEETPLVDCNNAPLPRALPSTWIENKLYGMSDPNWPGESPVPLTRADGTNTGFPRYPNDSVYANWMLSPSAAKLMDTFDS
UniProt Q9BRS2: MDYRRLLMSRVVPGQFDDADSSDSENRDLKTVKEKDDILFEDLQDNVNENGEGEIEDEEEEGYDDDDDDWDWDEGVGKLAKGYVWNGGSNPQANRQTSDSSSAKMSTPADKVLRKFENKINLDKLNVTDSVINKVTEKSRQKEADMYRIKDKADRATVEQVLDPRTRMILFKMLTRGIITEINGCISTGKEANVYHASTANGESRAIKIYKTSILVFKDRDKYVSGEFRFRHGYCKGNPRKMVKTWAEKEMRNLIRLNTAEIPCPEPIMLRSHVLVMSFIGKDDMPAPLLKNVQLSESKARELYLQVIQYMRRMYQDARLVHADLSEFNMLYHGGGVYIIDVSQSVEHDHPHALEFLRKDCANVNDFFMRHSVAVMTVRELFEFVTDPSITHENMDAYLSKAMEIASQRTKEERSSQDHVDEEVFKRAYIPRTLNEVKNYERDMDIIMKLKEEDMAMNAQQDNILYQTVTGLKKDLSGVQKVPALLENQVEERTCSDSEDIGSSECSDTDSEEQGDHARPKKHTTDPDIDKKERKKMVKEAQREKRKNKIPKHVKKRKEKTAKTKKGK
UniProt Q13546: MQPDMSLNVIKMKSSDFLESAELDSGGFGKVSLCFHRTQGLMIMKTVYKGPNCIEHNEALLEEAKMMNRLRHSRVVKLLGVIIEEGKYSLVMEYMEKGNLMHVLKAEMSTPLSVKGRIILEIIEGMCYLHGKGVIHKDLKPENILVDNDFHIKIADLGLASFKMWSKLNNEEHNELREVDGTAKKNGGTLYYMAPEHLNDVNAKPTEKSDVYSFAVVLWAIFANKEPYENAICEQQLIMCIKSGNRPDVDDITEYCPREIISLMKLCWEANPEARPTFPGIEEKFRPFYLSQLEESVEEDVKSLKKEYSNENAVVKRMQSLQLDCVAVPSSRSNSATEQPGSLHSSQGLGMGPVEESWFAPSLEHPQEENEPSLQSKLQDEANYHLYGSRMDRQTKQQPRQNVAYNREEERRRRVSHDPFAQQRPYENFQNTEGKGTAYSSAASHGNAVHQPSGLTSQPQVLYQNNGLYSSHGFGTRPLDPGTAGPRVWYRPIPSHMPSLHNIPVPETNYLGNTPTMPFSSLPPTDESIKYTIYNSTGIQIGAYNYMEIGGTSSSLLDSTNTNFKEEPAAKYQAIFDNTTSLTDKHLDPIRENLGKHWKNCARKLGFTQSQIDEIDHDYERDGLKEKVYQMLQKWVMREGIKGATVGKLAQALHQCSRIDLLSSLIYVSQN
UniProt Q01974, whole entry: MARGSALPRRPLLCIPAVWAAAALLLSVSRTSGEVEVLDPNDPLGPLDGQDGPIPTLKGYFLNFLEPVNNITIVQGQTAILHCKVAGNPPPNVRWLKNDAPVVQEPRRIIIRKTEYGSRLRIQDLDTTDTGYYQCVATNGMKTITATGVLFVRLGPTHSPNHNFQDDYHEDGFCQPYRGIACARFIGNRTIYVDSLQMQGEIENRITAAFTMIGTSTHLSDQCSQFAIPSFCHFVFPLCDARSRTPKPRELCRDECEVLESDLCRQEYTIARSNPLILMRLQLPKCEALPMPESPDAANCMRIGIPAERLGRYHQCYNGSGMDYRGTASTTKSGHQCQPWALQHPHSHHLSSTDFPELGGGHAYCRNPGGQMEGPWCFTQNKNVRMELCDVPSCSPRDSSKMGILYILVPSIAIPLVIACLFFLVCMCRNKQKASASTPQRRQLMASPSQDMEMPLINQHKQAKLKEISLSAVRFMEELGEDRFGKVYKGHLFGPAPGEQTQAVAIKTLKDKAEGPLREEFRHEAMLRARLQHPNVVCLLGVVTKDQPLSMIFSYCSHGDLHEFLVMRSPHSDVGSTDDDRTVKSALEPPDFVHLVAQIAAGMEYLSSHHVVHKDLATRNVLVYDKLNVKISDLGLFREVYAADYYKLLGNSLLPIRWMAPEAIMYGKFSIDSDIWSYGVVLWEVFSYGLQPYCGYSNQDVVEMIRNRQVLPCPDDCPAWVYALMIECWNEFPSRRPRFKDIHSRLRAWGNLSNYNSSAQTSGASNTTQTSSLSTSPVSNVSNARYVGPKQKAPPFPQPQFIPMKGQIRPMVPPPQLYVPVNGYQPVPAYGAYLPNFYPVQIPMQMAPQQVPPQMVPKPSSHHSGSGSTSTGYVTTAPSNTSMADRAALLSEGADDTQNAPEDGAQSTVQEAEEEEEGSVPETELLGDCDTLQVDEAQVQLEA
UniProt Q15418, whole entry: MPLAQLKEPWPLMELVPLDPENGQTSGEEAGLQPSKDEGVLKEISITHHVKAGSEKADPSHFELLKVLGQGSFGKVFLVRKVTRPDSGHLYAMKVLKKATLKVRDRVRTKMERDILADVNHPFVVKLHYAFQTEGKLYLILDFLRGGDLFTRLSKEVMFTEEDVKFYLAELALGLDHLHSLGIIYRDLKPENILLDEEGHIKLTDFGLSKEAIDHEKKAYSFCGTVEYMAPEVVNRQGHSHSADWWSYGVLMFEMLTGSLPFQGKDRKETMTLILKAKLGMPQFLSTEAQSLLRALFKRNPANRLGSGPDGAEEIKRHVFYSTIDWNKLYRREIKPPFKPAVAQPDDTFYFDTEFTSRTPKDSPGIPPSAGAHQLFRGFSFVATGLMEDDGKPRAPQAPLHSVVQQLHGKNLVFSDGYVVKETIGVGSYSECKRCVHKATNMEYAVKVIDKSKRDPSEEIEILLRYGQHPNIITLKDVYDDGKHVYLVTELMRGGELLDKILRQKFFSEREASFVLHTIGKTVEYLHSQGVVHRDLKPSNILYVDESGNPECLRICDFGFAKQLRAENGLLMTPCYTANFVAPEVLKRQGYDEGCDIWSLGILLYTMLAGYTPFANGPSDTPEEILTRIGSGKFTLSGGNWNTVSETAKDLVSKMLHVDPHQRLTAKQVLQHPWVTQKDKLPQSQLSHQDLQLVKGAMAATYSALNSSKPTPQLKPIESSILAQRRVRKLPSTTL
UniProt Q9NYA1, whole entry: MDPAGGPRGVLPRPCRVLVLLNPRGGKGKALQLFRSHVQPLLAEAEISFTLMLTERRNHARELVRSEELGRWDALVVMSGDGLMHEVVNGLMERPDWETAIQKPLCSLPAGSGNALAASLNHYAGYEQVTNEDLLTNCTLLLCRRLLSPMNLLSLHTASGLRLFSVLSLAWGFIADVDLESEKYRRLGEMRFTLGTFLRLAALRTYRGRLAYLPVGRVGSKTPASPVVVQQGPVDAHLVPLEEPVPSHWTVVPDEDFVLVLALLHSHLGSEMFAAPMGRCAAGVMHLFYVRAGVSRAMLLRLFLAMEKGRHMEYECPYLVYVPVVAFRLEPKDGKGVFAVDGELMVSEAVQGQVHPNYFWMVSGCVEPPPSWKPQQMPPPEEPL
UniProt Q9Y6E0: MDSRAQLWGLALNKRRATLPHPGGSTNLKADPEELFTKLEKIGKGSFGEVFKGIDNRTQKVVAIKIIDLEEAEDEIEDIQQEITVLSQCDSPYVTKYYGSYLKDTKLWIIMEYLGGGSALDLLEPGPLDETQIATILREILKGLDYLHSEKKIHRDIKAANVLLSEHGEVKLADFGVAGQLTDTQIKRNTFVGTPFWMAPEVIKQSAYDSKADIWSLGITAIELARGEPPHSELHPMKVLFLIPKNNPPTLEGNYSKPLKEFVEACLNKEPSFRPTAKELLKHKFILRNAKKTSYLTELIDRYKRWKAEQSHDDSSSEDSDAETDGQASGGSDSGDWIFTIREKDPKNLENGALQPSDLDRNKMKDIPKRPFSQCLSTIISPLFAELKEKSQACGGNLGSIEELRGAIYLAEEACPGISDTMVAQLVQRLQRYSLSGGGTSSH

Legend:
Assay in all cases: kinase-Nluc reporter destabilization hit call (1 = scored as downregulated) (binary); higher = compound decreases kinase abundance
Conditions in all cases: K562; 2-18 h
[1] = target: RET (UniProt P07949)
[2] = target: RET_M918T (clone: RET_mut) (UniProt P07949)
[3] = target: RIOK1 (UniProt Q9BRS2)
[4] = target: RIPK1 (UniProt Q13546)
[5] = target: RIPK2 (UniProt O43353)
[6] = target: ROR2 (UniProt Q01974)
[7] = target: RPS6KA1 (UniProt Q15418)
[8] = target: SPHK1 (UniProt Q9NYA1)
[9] = target: SRC (UniProt P12931)
[10] = target: STK24 (UniProt Q9Y6E0)

Measured: kinase-Nluc reporter destabilization hit call

COc1cc([N+](=O)[O-])ccc1S(=O)(=O)N1C[C@@H](CN2CCN(c3ccccn3)CC2)[C@H](c2cccc(F)c2)C1 (relative stereo) (10 µM)
inactive: [1] 0 | [2] 0 | [3] 0 | [4] 0 | [5] 0 | [6] 0 | [7] 0 | [8] 0 | [9] 0 | [10] 0

N#CC(c1ccnc(NCCc2cccnc2)n1)c1nc2ccccc2s1 (stereo not given) (10 µM)
inactive: [1] 0 | [2] 0 | [3] 0 | [4] 0 | [5] 0 | [6] 0 | [7] 0 | [8] 0 | [9] 0 | [10] 0

COc1ccc([C@@H]2CC(=O)c3c(O)cc(O)cc3O2)cc1O [Hesperetin] (10 µM)
inactive: [1] 0 | [2] 0 | [3] 0 | [4] 0 | [5] 0 | [6] 0 | [7] 0 | [8] 0 | [9] 0 | [10] 0

N#Cc1ccc2ncnc(NC3CCC(N4CCOCC4)CC3)c2c1 (stereo not given) (10 µM)
inactive: [1] 0 | [2] 0 | [3] 0 | [4] 0 | [5] 0 | [6] 0 | [7] 0 | [8] 0 | [9] 0 | [10] 0

COc1ccc(C2CC(c3ccccc3)=NN2c2ccc(S(N)(=O)=O)cc2)cc1 (stereo not given) (10 µM)
inactive: [1] 0 | [2] 0 | [3] 0 | [4] 0 | [5] 0 | [6] 0 | [7] 0 | [8] 0 | [9] 0 | [10] 0
